Source: PubChem BioAssay AID504808 (Drosophila RNAi Screening Center, 2011)

Test: 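Fly genes required to hold E2F transcription in check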 (primary screen)
System: Drosophila S2 cells
Knock-down reagent: long dsRNA against Drosophila genes
Detection: 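Dual luciferase plate measurements; E2F-specific signal taken as firefly over Renilla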
Reading the numbers: E2F firefly: higher = more E2F reporter activity; Renilla normaliser: higher = more normaliser reporter signal
Active means: 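Called active if the normalised E2F reporter went up by over 50%; the cutoff is arbitrary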
In all, the deposit lists about 21,000 reagents; below is an unselected part of those that have a named target and a result. Of all reagents, 18 (0.084%) were called active. 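Raw counts without plate normalisation, one of two replicates; the ratio scores behind the calls were not deposited.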 A plus sign joins genes that one reagent is predicted to hit. Not given: the amount of reagent, the time to read-out.

For Dlip1 (GeneID 53580) [DRSC18460], the entry reads E2F firefly, rep 1 = 69102; Renilla normaliser, rep 1 = 4939; inactive.
heph (GeneID 48571) [DRSC14082] scored E2F firefly, rep 1 = 91444; Renilla normaliser, rep 1 = 2319; inactive.
For heph (GeneID 48571) [DRSC14085] the deposit lists E2F firefly, rep 1 = 66421; Renilla normaliser, rep 1 = 2532; inactive.
Against heph (GeneID 48571) [DRSC15436], the entry reads E2F firefly, rep 1 = 1.05e5; Renilla normaliser, rep 1 = 6123; inactive.
Silencing of heph (GeneID 48571) [DRSC16783] resulted in: E2F firefly, rep 1 = 67140; Renilla normaliser, rep 1 = 4476; inactive.
Against CG12641 (retired record) (GeneID 31963) [DRSC17848] the deposit lists E2F firefly, rep 1 = 89832; Renilla normaliser, rep 1 = 6625; inactive.
Prosalpha4 (GeneID 32584) [DRSC20271] showed E2F firefly, rep 1 = 1.95e5; Renilla normaliser, rep 1 = 6508; inactive.
Knock-down of MED16 (GeneID 37535) [DRSC04506] gave: E2F firefly, rep 1 = 1.02e5; Renilla normaliser, rep 1 = 4132; inactive.
With knock-down of CG34263 (GeneID 5740488) [DRSC07866], the record shows E2F firefly, rep 1 = 1.32e5; Renilla normaliser, rep 1 = 4022; inactive.
After knock-down of Ent3 (GeneID 39461) [DRSC09822] the results were E2F firefly, rep 1 = 69825; Renilla normaliser, rep 1 = 3172; inactive.
For r + CG13012 [DRSC19531], the entry reads E2F firefly, rep 1 = 1.58e5; Renilla normaliser, rep 1 = 7255; inactive.
Depletion of mRpS29 (GeneID 37563) [DRSC04398] gave: E2F firefly, rep 1 = 76415; Renilla normaliser, rep 1 = 3077; inactive.
With knock-down of PolH (GeneID 40438) [DRSC11800], the screen gave E2F firefly, rep 1 = 85773; Renilla normaliser, rep 1 = 3315; inactive.
Fas2 (GeneID 31364) [DRSC17308] scored E2F firefly, rep 1 = 92839; Renilla normaliser, rep 1 = 2604; inactive.
Fas2 (GeneID 31364) [DRSC17309] showed E2F firefly, rep 1 = 86257; Renilla normaliser, rep 1 = 2768; inactive.
Silencing of Fas2 (GeneID 31364) [DRSC18664] gave: E2F firefly, rep 1 = 1903; Renilla normaliser, rep 1 = 940; inactive.
Silencing of CecA1 (GeneID 43596) [DRSC16603] gave: E2F firefly, rep 1 = 1.33e5; Renilla normaliser, rep 1 = 7116; inactive.
Sodh2 (GeneID 41313) [DRSC16865] gave E2F firefly, rep 1 = 1.23e5; Renilla normaliser, rep 1 = 5176; inactive.
After knock-down of CG9004 (GeneID 38303) [DRSC08617] the results were E2F firefly, rep 1 = 94409; Renilla normaliser, rep 1 = 4208; inactive.

Laid out differently: 2 of the entries above
{"gene": "MED16 (GeneID 37535)", "DRSC id": "DRSC04506", "E2F firefly, rep 1": 1.02e5, "Renilla normaliser, rep 1": 4132, "activity call": "inactive"}
{"gene": "CG34263 (GeneID 5740488)", "DRSC id": "DRSC07866", "E2F firefly, rep 1": 1.32e5, "Renilla normaliser, rep 1": 4022, "activity call": "inactive"}
